Measured values from article PMC8564520.
Results are given in words; binding and its absence hold for the method and conditions named. Binding seen in cells or lysates may run through a third protein. These calls come from enrichment with a bait or labelling near it, and not all partners need be listed.

Chains of the proteins cited; added tags and fusions are not shown.
UniProt Q99873: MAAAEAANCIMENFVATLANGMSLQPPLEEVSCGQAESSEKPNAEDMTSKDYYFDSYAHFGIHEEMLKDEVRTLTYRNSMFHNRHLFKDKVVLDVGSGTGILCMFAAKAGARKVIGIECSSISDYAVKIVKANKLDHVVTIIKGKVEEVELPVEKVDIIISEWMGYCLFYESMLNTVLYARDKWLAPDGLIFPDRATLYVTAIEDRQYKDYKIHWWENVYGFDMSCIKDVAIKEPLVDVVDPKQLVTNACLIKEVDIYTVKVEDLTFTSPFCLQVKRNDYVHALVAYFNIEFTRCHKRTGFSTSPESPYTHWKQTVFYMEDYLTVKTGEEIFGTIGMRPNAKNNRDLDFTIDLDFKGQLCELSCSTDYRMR
UniProt P51784: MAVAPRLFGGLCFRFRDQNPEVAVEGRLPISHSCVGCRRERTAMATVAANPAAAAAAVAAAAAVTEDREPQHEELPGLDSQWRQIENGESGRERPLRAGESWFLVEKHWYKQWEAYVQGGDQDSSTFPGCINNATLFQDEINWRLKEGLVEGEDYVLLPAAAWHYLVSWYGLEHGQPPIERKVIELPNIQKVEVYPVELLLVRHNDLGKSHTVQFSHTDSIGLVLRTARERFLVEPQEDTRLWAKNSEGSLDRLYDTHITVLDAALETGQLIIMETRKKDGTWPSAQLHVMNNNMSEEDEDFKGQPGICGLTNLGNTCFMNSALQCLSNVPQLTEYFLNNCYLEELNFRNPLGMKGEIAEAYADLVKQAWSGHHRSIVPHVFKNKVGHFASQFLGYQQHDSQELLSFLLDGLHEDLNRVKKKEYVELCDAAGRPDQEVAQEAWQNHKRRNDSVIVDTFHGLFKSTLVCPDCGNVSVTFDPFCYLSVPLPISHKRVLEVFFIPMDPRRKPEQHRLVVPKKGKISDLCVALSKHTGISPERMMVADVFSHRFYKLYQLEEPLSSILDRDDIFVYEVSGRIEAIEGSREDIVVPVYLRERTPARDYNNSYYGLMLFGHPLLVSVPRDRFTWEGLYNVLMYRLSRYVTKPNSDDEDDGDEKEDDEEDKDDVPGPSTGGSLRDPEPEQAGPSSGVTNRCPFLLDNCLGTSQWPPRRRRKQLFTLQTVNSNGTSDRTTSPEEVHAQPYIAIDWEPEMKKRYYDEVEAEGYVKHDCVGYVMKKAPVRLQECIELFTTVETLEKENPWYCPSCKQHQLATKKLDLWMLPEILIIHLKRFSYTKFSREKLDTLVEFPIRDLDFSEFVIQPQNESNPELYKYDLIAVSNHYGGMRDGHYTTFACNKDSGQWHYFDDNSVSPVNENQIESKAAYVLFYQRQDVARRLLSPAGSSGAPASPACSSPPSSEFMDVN

Target: Flag-PRMT1 (human) (UniProt Q99873)
Test: affinity purification with mass spectrometry; Flag-M2 agarose purification from 293T cells stably expressing Flag-PRMT1 against empty-vector cells; 0.1% NP40 lysis buffer, 150 mM NaCl; Flag peptide elution; SDS-PAGE and LC-MS/MS

binding: binds
Substance: USP11 (endogenous, 293T) (from UniProt P51784 1-963) (enzyme)
